# PubChem BioAssay AID504774 – Drosophila RNAi Screening Center, 2011
# Purpose: 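Knock-downs that shift viability of MMS-exposed cells relative to untreated ones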 (primary screen)
# System: Drosophila Kc167 cells
# Reagent: long dsRNA against Drosophila genes, about 0.25 µg dsRNA per well
# Duration: about 6 days: 3 days knock-down, then 3 days with or without MMS
# Treatment: methyl methanesulphonate 0.004% (w/v) for 3 days after knock-down
# Measured: 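ATP-dependent luminescence as a measure of live cells in MMS-exposed wells, quantile normalised within each plate, with replicate values also given as a mean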
# Scale: mean viability with MMS and viability with MMS: higher = more surviving cells after MMS
# The deposit covers about 23,000 reagents; shown is an unselected part of those with a known target gene and a result. 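Values are quantile-normalised luminescence on an arbitrary scale; higher means more cells surviving MMS.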 The numbers tell different reagents against one gene apart. A plus sign joins genes that one reagent is predicted to hit.
Gene,reagent no.,mean viability with MMS,"viability with MMS, replicate 1","viability with MMS, replicate 2"
ebo (GeneID 47141),1,3.52e6,3.95e6,4.04e6
ZnT63C (GeneID 38407),1,3.46e6,3.97e6,3.87e6
ZnT63C (GeneID 38407),2,3.50e6,3.92e6,4.02e6
ZnT63C (GeneID 38407),3,3.86e6,4.42e6,4.35e6
ZnT63C (GeneID 38407),4,3.39e6,3.89e6,3.89e6
CycA (GeneID 39340),1,3.50e6,3.97e6,3.97e6
CycA (GeneID 39340),2,3.45e6,3.90e6,3.93e6
CG5687 (GeneID 38255),1,3.57e6,4.00e6,4.08e6
Dop1R2 (GeneID 43484),1,3.52e6,3.87e6,4.12e6
Dop1R2 (GeneID 43484),2,3.51e6,4.01e6,3.93e6
Xbp1 (GeneID 44226),1,1.97e6,4.02e6,
Xbp1 (GeneID 44226),2,3.49e6,3.97e6,3.98e6
CG14000 (GeneID 33820),1,3.57e6,4.17e6,3.92e6
Sec24AB (GeneID 36025),1,3.51e6,3.94e6,4.01e6
CG14332 (GeneID 42098),1,3.61e6,4.01e6,4.22e6
uri (GeneID 37924),1,3.62e6,3.92e6,4.15e6
CG34228 (GeneID 5740377),1,3.40e6,3.90e6,3.92e6
CG40378 (retired record) (GeneID 3355048),1,2.34e6,4.07e6,3.96e6
CG40378 (retired record) (GeneID 3355048),2,3.58e6,4.01e6,4.08e6
Alg2 (GeneID 38374),1,3.45e6,3.97e6,3.86e6
CG15211 (GeneID 32006),1,3.61e6,4.06e6,4.11e6
Obp22a (GeneID 246672),1,3.48e6,3.94e6,3.99e6
CG12535 (GeneID 31311),1,3.48e6,3.92e6,4.00e6
CG13003 (GeneID 32675),1,3.60e6,4.11e6,4.05e6
CG15814 (GeneID 32765),1,3.55e6,4.09e6,3.98e6
CG9555 (GeneID 34223),1,3.81e6,3.97e6,4.70e6
Ciz1 (GeneID 39161),1,3.09e6,3.55e6,3.47e6
CG10445 (GeneID 40938),1,3.48e6,3.98e6,3.92e6
CG18480 (GeneID 34920),1,3.60e6,4.00e6,4.21e6
mask (GeneID 50070),1,3.28e6,3.73e6,3.67e6
mask (GeneID 50070),2,3.25e6,3.79e6,3.63e6
mask (GeneID 50070),3,3.18e6,3.77e6,3.60e6
CG31244 (GeneID 326129),1,3.62e6,3.98e6,4.21e6
puf (GeneID 42935),1,3.22e6,3.63e6,3.71e6
puf (GeneID 42935),2,3.75e6,4.27e6,4.23e6
CG12278 (GeneID 42486),1,3.32e6,3.80e6,3.78e6
CG12985 (GeneID 32774),1,3.63e6,4.07e6,4.13e6
lectin-28C (GeneID 53542),1,3.61e6,4.08e6,4.10e6
Nplp1 (GeneID 38003),1,3.51e6,4.18e6,3.85e6

Entries listed so far whose gene name starts with P or p:
Gene,reagent no.,mean viability with MMS,"viability with MMS, replicate 1","viability with MMS, replicate 2"
puf (GeneID 42935),1,3.22e6,3.63e6,3.71e6
puf (GeneID 42935),2,3.75e6,4.27e6,4.23e6

More results:
Gene,reagent no.,mean viability with MMS,"viability with MMS, replicate 1","viability with MMS, replicate 2"
eEF1alpha1 (GeneID 36271),1,3.19e6,3.43e6,3.83e6
CG11811 (GeneID 39213),1,3.54e6,4.09e6,3.92e6
CG6149 (GeneID 39277),1,3.48e6,3.92e6,3.96e6
CG6878 (GeneID 39656),1,3.53e6,4.01e6,4.00e6
EndoGI (GeneID 34953),1,3.44e6,3.89e6,3.93e6
tipE (GeneID 38504),1,3.57e6,4.14e6,3.95e6
peo (GeneID 47272),1,3.65e6,4.03e6,4.26e6
CG13215 (GeneID 36182),1,3.53e6,3.93e6,4.07e6
Osi4 (GeneID 40758),1,3.51e6,4.00e6,3.97e6
Myd88 (GeneID 35956),1,3.66e6,4.19e6,4.12e6
CG16787 (GeneID 37811),1,3.56e6,4.21e6,3.89e6
BTBD9 (GeneID 32000),1,3.80e6,4.41e6,4.13e6
BTBD9 (GeneID 32000),2,3.28e6,3.83e6,3.83e6
CG5646 (GeneID 43311),1,3.54e6,4.02e6,4.02e6
CG17760 (GeneID 36385),1,3.88e6,4.01e6,4.55e6
CG42565 (GeneID 37598),1,3.79e6,4.05e6,4.48e6
CG2901 (GeneID 31338),1,3.73e6,4.06e6,4.39e6
CG15386 + CG42371,1,3.64e6,3.97e6,4.31e6
Spn31A (GeneID 34339),1,3.48e6,3.87e6,4.03e6
CG31897 (GeneID 319011),1,3.51e6,4.01e6,3.94e6
kek1 (GeneID 34688),1,3.59e6,3.95e6,4.18e6
Ir76a (GeneID 40157),1,3.76e6,4.13e6,4.29e6
shep (GeneID 38605),1,3.00e6,3.57e6,3.57e6
shep (GeneID 38605),2,3.50e6,4.04e6,3.90e6
shep (GeneID 38605),3,3.32e6,3.79e6,3.78e6
Su(var)2-HP2 (GeneID 36621),1,3.51e6,3.92e6,4.02e6
CG12448 (GeneID 34942),1,3.53e6,4.02e6,3.99e6
ATP7 (GeneID 32142),1,3.58e6,4.10e6,3.99e6
comm3 (GeneID 39696),1,3.67e6,4.09e6,4.18e6
comm3 (GeneID 39696),2,3.56e6,4.03e6,4.05e6
comm3 (GeneID 39696),3,3.55e6,4.08e6,3.98e6
